No constants are given. Whether binding was seen depends on the method and setting. In cells and extracts the contact can be indirect.
Target: WAVE2 (UniProt Q9Y6W5)
Assay: co-IP; total cellular lysates (1 mg) of 293T cells cotransfected with GFP-FL-mDia2, WAVE2 and Abi1, alone or in combination; immunoprecipitated with an anti-WAVE2 antibody; immunoblot

By UniProt entry, the sequences of proteins in these tests, tags left out.
UniProt Q9Y6W5: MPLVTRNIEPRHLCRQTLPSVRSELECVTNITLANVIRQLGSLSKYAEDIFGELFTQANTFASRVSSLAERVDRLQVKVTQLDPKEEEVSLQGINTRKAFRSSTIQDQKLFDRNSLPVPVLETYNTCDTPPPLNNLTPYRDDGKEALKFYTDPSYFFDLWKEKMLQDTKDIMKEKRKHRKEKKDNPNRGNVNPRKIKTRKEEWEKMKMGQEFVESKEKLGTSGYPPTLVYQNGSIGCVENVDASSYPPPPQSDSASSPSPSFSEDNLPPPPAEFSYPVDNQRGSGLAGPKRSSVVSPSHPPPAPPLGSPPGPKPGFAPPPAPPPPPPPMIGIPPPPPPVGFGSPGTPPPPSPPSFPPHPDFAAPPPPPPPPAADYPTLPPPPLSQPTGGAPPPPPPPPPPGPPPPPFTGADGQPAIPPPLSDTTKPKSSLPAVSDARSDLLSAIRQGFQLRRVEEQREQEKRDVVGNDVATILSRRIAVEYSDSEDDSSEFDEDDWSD
UniProt Q9Z207: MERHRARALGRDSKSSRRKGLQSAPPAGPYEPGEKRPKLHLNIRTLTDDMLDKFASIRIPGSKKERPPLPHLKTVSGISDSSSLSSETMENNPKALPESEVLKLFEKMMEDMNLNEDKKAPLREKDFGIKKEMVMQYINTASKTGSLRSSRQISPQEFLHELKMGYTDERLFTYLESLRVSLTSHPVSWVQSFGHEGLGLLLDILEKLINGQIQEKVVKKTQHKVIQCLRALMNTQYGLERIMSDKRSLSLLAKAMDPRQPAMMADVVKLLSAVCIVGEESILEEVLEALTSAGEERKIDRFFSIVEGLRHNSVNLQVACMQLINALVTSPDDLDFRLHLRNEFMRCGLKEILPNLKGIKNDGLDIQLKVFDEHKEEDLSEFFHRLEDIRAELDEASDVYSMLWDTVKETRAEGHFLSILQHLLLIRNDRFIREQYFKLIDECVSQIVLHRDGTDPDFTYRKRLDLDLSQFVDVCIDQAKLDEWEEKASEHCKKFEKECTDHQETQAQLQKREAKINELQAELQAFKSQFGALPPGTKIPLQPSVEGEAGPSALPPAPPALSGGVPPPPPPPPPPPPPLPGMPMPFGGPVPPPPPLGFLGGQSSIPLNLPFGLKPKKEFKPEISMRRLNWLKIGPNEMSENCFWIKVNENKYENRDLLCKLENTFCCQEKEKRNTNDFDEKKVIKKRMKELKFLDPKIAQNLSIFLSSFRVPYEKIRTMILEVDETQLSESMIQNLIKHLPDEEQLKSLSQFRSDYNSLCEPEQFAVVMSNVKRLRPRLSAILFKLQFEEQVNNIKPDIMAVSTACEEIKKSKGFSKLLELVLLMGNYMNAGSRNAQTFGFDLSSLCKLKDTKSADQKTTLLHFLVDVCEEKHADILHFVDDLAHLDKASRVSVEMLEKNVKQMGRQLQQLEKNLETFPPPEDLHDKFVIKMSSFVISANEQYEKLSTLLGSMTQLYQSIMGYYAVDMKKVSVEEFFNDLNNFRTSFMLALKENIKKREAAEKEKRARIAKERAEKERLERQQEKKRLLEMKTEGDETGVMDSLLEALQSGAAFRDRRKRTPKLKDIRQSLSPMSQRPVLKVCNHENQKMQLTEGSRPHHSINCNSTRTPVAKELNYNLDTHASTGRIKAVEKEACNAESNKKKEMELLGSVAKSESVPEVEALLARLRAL

GFP-FL-mDia2 (full-length mDia2 fused to GFP) (from UniProt Q9Z207 1-1171)
binding: no binding
